No constants are given. Whether binding was seen depends on the method and setting. In cells and extracts the contact can be indirect. Some results given as binding are weak or reduced against the parent protein; the word gives no strength. For some of these results: Where a sequence is shown, tags or fusion partners need not be part of it.
Columns and labels:
[1] = target: T1, RFP–βCOP (Drosophila melanogaster) (UniProt P45437); assay: co-IP; RFP-trap beads on lysate of 400 adult testes expressing RFP-tagged proteins; lysis buffer 25 mM Tris-HCl pH 7.4, 150 mM NaCl, 1 mM EDTA, 1% NP-40; blotted for RFP and dGOLPH3
T1 sequence: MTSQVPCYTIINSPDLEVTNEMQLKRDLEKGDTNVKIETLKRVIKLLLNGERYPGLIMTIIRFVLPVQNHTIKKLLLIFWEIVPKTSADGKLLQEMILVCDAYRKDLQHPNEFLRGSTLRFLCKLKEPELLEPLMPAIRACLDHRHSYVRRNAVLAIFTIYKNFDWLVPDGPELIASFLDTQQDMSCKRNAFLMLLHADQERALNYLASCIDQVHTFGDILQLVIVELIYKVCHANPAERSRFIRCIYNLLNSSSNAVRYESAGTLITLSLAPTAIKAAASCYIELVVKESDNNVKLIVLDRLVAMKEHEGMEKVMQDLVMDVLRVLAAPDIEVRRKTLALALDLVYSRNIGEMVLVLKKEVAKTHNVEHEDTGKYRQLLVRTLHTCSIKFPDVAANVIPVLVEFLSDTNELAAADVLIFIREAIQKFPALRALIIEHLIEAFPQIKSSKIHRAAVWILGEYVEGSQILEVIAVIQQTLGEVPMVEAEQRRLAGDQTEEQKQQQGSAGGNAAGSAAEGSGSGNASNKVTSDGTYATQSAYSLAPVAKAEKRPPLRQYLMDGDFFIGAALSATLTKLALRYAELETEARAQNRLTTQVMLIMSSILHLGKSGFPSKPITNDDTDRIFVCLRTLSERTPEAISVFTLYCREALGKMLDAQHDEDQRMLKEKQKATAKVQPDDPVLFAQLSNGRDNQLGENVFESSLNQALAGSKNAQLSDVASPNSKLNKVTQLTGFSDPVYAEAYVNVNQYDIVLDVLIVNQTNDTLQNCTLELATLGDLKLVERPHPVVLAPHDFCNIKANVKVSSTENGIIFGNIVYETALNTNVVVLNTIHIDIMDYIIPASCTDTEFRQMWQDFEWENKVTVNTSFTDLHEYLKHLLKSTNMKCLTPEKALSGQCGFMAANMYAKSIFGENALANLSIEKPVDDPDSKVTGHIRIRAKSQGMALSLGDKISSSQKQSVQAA

The chains behind the UniProt entries cited, without tags or fusion partners.
UniProt O18338: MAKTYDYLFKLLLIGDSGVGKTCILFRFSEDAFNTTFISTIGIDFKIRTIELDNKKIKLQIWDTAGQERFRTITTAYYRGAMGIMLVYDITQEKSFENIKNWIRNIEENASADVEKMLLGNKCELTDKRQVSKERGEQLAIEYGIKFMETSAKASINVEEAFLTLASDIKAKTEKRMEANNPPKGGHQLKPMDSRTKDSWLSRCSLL
UniProt Q9VQ93: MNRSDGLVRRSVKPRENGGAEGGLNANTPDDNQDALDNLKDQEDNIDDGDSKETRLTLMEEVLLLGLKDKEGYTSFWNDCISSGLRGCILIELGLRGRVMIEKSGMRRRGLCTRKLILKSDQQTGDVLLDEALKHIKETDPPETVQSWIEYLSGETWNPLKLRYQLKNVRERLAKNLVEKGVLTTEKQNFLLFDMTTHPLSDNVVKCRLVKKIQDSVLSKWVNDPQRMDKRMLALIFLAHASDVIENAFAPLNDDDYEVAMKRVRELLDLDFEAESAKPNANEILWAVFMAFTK
UniProt Q9NFU0: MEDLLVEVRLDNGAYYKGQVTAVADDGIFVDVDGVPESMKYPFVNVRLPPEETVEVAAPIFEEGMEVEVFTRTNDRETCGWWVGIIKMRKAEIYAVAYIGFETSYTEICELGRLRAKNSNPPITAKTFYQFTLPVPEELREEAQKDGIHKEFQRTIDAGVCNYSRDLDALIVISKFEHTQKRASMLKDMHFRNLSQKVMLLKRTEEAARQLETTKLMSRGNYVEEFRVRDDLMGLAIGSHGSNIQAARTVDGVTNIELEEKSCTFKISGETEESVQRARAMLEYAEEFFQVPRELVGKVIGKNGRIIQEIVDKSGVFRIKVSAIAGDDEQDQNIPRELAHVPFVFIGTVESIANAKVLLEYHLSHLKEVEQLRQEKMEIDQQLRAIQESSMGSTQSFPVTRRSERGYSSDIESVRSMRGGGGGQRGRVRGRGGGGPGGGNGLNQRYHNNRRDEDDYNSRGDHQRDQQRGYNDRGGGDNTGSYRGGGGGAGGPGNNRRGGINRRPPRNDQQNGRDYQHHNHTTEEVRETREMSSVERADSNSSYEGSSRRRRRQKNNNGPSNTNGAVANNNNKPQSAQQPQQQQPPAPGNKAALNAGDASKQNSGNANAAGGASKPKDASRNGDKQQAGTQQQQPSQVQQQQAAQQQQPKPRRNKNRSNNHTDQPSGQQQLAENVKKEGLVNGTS

[2] = target: T2, GFP tagged Sec22 (Drosophila melanogaster) (UniProt M9PGI6); assay: co-IP; GFP-trap beads on lysate of 400 adult testes expressing GFP- or YFP-tagged proteins; lysis buffer 25 mM Tris-HCl pH 7.4, 150 mM NaCl, 1 mM EDTA, 1% NP-40; blotted for GFP/YFP and GOLPH3
T2 sequence: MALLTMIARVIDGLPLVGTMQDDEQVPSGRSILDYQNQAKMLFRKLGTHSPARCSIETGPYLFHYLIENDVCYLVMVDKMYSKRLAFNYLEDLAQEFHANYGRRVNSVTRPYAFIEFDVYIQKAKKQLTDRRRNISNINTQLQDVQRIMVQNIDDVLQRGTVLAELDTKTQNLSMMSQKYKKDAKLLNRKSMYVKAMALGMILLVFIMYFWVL

[3] = target: YFP-Rab8 (Drosophila melanogaster) (UniProt O18338); assay: as above
[4] = target: T3, YFP-Rab10 (Drosophila melanogaster) (UniProt O15971); assay: as above
T3 sequence: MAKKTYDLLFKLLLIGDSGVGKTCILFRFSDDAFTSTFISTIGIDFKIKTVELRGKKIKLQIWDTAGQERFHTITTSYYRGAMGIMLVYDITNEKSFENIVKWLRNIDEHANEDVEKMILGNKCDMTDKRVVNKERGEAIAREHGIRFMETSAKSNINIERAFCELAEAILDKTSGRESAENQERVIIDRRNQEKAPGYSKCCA

[5] = target: T4, dAtx2-HA (Drosophila melanogaster) (UniProt Q8SWR8); assay: proximity ligation; Duolink PLA on formaldehyde-fixed larval testes (premeiotic and dividing spermatocytes); one primary antibody omitted as negative control
T4 sequence: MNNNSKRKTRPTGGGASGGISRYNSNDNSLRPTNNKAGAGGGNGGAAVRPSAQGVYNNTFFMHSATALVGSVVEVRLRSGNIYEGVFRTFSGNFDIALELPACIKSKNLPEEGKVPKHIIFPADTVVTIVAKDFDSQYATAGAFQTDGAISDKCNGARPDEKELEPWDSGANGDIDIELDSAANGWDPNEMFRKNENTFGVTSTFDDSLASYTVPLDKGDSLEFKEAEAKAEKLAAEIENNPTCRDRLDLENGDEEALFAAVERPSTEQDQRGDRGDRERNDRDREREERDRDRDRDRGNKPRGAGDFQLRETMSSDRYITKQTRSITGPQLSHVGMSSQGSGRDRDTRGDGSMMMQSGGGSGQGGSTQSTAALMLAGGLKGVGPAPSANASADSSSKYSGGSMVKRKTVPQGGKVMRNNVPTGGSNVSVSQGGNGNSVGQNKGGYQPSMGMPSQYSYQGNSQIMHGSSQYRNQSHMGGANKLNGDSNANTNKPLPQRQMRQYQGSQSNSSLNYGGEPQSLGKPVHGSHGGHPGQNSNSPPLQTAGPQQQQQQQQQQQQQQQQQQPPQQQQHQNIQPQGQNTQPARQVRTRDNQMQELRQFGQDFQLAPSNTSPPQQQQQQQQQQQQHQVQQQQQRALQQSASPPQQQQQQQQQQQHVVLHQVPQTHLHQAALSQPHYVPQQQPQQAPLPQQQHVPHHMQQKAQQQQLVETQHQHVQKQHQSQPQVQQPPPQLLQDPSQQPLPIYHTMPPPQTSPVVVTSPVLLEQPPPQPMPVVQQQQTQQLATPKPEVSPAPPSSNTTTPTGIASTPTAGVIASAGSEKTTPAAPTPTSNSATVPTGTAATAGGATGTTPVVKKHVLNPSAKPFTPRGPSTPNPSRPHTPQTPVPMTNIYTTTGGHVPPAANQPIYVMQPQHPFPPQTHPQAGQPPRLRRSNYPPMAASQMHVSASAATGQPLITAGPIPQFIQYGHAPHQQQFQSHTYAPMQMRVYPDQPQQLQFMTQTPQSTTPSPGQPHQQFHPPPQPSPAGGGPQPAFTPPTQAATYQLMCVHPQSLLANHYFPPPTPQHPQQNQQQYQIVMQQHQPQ

[6] = target: dGOLPH3 (Drosophila melanogaster (endogenous in testes)) (UniProt Q9VQ93); assay: as above
[7] = target: dGOLPH3 (Drosophila melanogaster (endogenous in testes)) (UniProt Q9VQ93); assay: co-IP; extract of 400 adult testes expressing dAtx2-HA, rabbit anti-GOLPH3 antibody (pre-immune serum as control) and Protein A-Agarose; blotted for dGOLPH3, dFmr1 and HA

| binding [1] | binding [2] | binding [3] | binding [4] | binding [5] | binding [6] | binding [7] | Substance |
| --- | --- | --- | --- | --- | --- | --- | --- |
| binds | binds | binds | binds | – | – | – | dGOLPH3 (from UniProt Q9VQ93 1-294) |
| – | – | – | – | binds | binds | binds | dFmr1 (from UniProt Q9NFU0 1-684) |
